# Data as given in PubChem BioAssay AID2685 (National Center for Advancing Translational Sciences (NCATS), 2010).
# This is one part of the list. Shown are side measurements of this screen, not its main read-out; they come without a call. Compounds called inactive in the main read-out are mostly missing here. The note in brackets gives the kind of curve behind each potency; many fits are weak.
# Test: qHTS Assay for Lipid Storage Modulators in Drosophila S3 Cells;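 on cell number change: cells counted by Cell Tracker Red CMTPX staining in the red channel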
# Settings: BODIPY lipid droplet fluorescence, 18-24 h; for cell number change: measured here: cell count max response, cells fed with added oleic acid
# In short: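 Drosophila S3 cells got compounds at several concentrations plus oleic acid (400 uM solution). Laser-scanning cytometry with 488 nm excitation read lipid droplets at 500-530 nm and cells at 575-640 nm. Percent activity was relative to 20 uM Triacsin C.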
# [1] = measured here: cell number channel AC50, cells fed with added oleic acid
# [2] = measured here: lipid fluorescence (Fed channel) AC50, cells fed with added oleic acid
smiles,measurement,setting,value
CC1(C)Cc2c(sc(NC(=O)COc3ccccc3)c2C#N)C(C)(C)N1,cell number change,,-12.2%
COc1ccc(N(CC(=O)NCc2ccccc2C)S(=O)(=O)c2ccccc2[N+](=O)[O-])c(OC)c1,cell number change,,-37.9%
same,AC50,[1],"20.6 µM [falling, single point]"
same,AC50,[2],"13 µM [falling, single point]"
O=C(Cc1cccs1)N1CCN=C1SCc1ccc(Br)cc1,cell number change,,10.5%
COCCCn1c(C(=O)NC2CCCCC2C)cc2c(=O)n3cccc(C)c3nc21 (stereo unspecified),AC50,[2],"18.4 µM [falling, partial curve]"
Cc1cc(C)nc(SCC(=O)NNC(=O)c2cccs2)n1,cell number change,,18.8%
Cc1cc(C)c2cc(CN(CCO)C(=O)Nc3ccc(Cl)cc3)c(=O)[nH]c2c1,cell number change,,-36.4%
same,AC50,[1],"23.1 µM [falling, single point]"
same,AC50,[2],"0.13 µM [rising, full curve, poor fit]"
Cc1[nH]n(-c2cccc(Cl)c2)c(=O)c1-c1ccc(Cl)cc1,cell number change,,-14%
same,AC50,[1],"6.51 µM [falling, single point]"
same,AC50,[2],"2.06 µM [falling, partial curve]"
CCN(CC(=O)Nc1c(F)cccc1F)C(=O)CNC(=O)C1CCCCC1,cell number change,,-26.5%
Cc1ccc(NC(=O)c2cc3ccccc3o2)nc1,cell number change,,35.2%
same,AC50,[1],"2.31 µM [rising, full curve]"
O=C(Oc1ccc(/C=N/NC(=O)c2ccco2)cc1)c1ccccc1,cell number change,,6.84%
same,AC50,[2],"14.6 µM [falling, partial curve, poor fit]"
CCC(=O)N(Cc1cc2cc(C)c(C)cc2[nH]c1=O)C1CCCCC1,AC50,[1],"0.651 µM [rising, single point]"
same,AC50,[2],"0.116 µM [rising, single point]"
c1cncc(-c2nc(-c3ccc4c(c3)OCCO4)cs2)c1,cell number change,,-18.9%
same,AC50,[2],"32.6 µM [falling, single point]"
CC(=O)N1CCN(c2ccc(NC(=O)c3ccc(OCc4ccccc4)cc3)cc2)CC1,cell number change,,26.1%
same,AC50,[1],"5.17 µM [falling, single point]"
same,AC50,[2],"5.17 µM [falling, single point]"
Cc1nccn1CCC1CCCCN1C(=O)CCc1nnc(-c2ccsc2)o1 (stereo unspecified),cell number change,,-0.12%
NS(=O)(=O)c1ccc(CCNCc2cccs2)cc1,cell number change,,-52.7%
same,AC50,[1],"20.6 µM [falling, single point]"
same,AC50,[2],"25.9 µM [falling, single point]"
O=C(CC(=O)NCCc1ccccc1)NCCc1ccccc1,cell number change,,8.55%
same,AC50,[2],"0.58 µM [rising, single point]"
C=C(C)C(=O)Nc1cccc(C2=NOC3(C2)C[C@H](C(N)=O)N(C(=O)CC#N)C3)c1 (stereo partly specified),cell number change,,3.18%
same,AC50,[2],"2.06 µM [falling, partial curve]"
O=C(Nc1cccc(NC(=O)c2cccc(Cl)c2)c1)c1cccnc1,cell number change,,1.32%
Cc1onc(-c2c(F)cccc2Cl)c1C(=O)OCc1cnc(Cl)s1,cell number change,,23.9%
same,AC50,[1],"0.00461 µM [rising, full curve, poor fit]"
COC(=O)Oc1ccc(/C=C/C(=O)OC(C)C)cc1OC(=O)OC,cell number change,,-19.6%
same,AC50,[1],"1.3 µM [rising, partial curve]"
same,AC50,[2],"2.91 µM [rising, partial curve]"
Cc1cc(C)c(NC(=O)CSc2nnc(-c3ccco3)n2N)c(C)c1,cell number change,,13.8%
same,AC50,[2],"0.651 µM [rising, full curve]"
CCCN(CCC)c1nc2c(C)cccn2c(=O)c1/C=C1/SC(=S)N(Cc2ccco2)C1=O,cell number change,,167%
same,AC50,[1],"0.58 µM [rising, partial curve, poor fit]"
same,AC50,[2],"0.651 µM [rising, full curve]"
Cc1onc(-c2ccccc2)c1C(=O)NC(C)CCc1ccccc1 (stereo unspecified),cell number change,,38.2%
same,AC50,[1],"0.13 µM [rising, full curve, poor fit]"
Cc1ccc(C(C(=O)NC2CCCCC2)N(Cc2ccco2)C(=O)Cc2c[nH]c3ccccc23)o1 (stereo unspecified),cell number change,,-53.8%
same,AC50,[1],"14.6 µM [falling, partial curve, poor fit]"
same,AC50,[2],"5.17 µM [falling, single point]"
O=C1C=C(Nc2cccc3cccnc23)c2ccccc2C1=O,cell number change,,-49.9%
same,AC50,[1],"7.31 µM [falling, partial curve]"
same,AC50,[2],"29.1 µM [falling, single point]"
COCCCNC(=S)N(CCCO)Cc1cc2cc3c(cc2[nH]c1=O)OCCO3,cell number change,,-8.45%
same,AC50,[2],"29.1 µM [rising, single point]"
CCOC(=O)N1CCC(NC(=O)Cc2ccccc2)CC1,cell number change,,7.27%
same,AC50,[2],"1.64 µM [rising, partial curve]"
O=C(/C=C/c1ccccc1)NNC(=O)C1CC1,cell number change,,-32%
same,AC50,[1],"2.06 µM [falling, full curve]"
same,AC50,[2],"2.59 µM [falling, full curve, poor fit]"
CC(/C=C1\SC(=S)N(CCC(=O)Nc2cccc(C(=O)O)c2)C1=O)=C\c1ccccc1,cell number change,,-17.9%
same,AC50,[2],"0.231 µM [rising, full curve]"
COC(=O)c1cc(OC)c(OC)cc1NC(=S)NC(=O)c1ccco1,AC50,[2],"29.1 µM [falling, single point]"
O=C(Nc1ccc(Cl)c(Cl)c1)NC1CCS(=O)(=O)C1 (stereo unspecified),cell number change,,9.21%
COc1ccc(C2C(C(C)=O)=C(O)C(=O)N2CCc2c[nH]c3ccccc23)cc1OC (stereo unspecified),cell number change,,-17.7%
same,AC50,[2],"2.31 µM [falling, partial curve, poor fit]"
CCOC(=O)Cc1csc(NC(=O)CCCc2ccccc2)n1,cell number change,,-16.1%
same,AC50,[2],"0.651 µM [rising, single point]"
Cc1cc(NC(=O)CSc2nnc3c(C)cc4ccccc4n23)no1,cell number change,,-0.752%
same,AC50,[2],"29.1 µM [rising, single point]"
CCc1ccccc1OCC(=O)Nc1nc(-c2cccnc2)cs1,AC50,[2],"0.58 µM [falling, single point]"
COC(=O)[C@H](C)NC(=O)Nc1ccc(Oc2ccccc2)cc1,cell number change,,4.1%
same,AC50,[2],"5.17 µM [falling, single point]"
COc1ccc(C2(C)NC(=O)N(CC(=O)NCCC3=CCCCC3)C2=O)cc1OC (stereo unspecified),cell number change,,22.2%
Cc1cc(C)n(-c2cc(Oc3ccccc3)ncn2)n1,cell number change,,-6.03%
same,AC50,[1],"3.26 µM [rising, single point]"
c1ccc(-c2cc(N3CCOCC3)nc3ccccc23)cc1,cell number change,,85.1%
same,AC50,[1],"23.1 µM [rising, single point]"
same,AC50,[2],"2.91 µM [falling, single point]"
O=C(CN1C(=O)NC2(CCCC2)C1=O)OCCOc1ccc(Br)cc1,cell number change,,-11.9%
same,AC50,[2],"29.1 µM [falling, single point]"
CCOc1ccc(CCNC(=O)Cn2ccc3ccccc3c2=O)cc1OCC,cell number change,,-17.1%
same,AC50,[2],"25.9 µM [falling, partial curve]"
O=C(O)c1ccc(Cl)c(S(=O)(=O)NCc2ccco2)c1,cell number change,,-20.9%
same,AC50,[2],"0.731 µM [falling, full curve]"
O=C(CC1CC2CCC1C2)Nc1nc(-c2ccccn2)cs1 (stereo unspecified),cell number change,,-6.56%
same,AC50,[2],"0.0058 µM [rising, full curve, poor fit]"
CC(=O)NCC(=O)OCC(=O)c1ccc(Cl)cc1,cell number change,,19.7%
CCOc1ccc(CN2CCNC(=O)C2CC(=O)OC)cc1 (stereo unspecified),cell number change,,16.5%
COc1ccc(-c2ccc(C(C)=O)cc2)cc1[C@H]1[C@H]2C=CC[C@@H](C)[C@@H]2C(=O)N1Cc1ccccc1,cell number change,,22.8%
same,AC50,[2],"29.1 µM [rising, single point]"
Cc1cc(N2CCN(C(=O)c3cccs3)CC2)c(F)cc1[N+](=O)[O-],cell number change,,-16.8%
same,AC50,[2],"11.6 µM [falling, single point]"
O=c1oc2c(CN3CCOCC3)c(O)c(Cl)cc2c2c1CCC2,cell number change,,-26.5%
Cc1cccc(N2CCN(CC(=O)NCc3ccc(Cl)cc3)CC2)c1C,cell number change,,-34.7%
same,AC50,[1],"14.6 µM [falling, single point]"
same,AC50,[2],"11.6 µM [falling, partial curve]"
O=C(NC1CCCCC1)c1ccc([N+](=O)[O-])o1,cell number change,,-6.35%
COC(=O)CNc1c(-c2ccccn2)nc2ccc(Br)cn12,cell number change,,140%
same,AC50,[1],"6.51 µM [rising, partial curve]"
same,AC50,[2],"6.51 µM [rising, partial curve]"
CCc1noc(C)c1C(=O)N1CCN(S(=O)(=O)c2ccc(C(C)=O)cc2)CC1,cell number change,,5.34%
same,AC50,[2],"1.3 µM [falling, full curve, poor fit]"
Cc1c(S(=O)(=O)N2CCN(c3ccc(F)cc3)CC2)c(=O)n(C)c(=O)n1C,cell number change,,-9.68%
same,AC50,[2],"4.11 µM [falling, full curve, poor fit]"
CC1Cc2cc(S(=O)(=O)N3CCCCC3C)ccc2N1C(=O)C1CCC1 (stereo unspecified),cell number change,,9.16%
same,AC50,[2],"29.1 µM [rising, partial curve]"
CCCOc1ccc(/C=N/Nc2cccc([N+](=O)[O-])c2)c(O)c1,cell number change,,-34.1%
same,AC50,[1],"32.6 µM [falling, single point]"
Cc1cccnc1NC(=O)C1CCN(S(=O)(=O)c2c(C)noc2/C=C/c2ccco2)CC1,cell number change,,-1.49%
CC(C)CC(NC(=O)C1CCC(C)CC1)C(=O)NCc1cccnc1 (stereo unspecified),cell number change,,20.2%
COc1ccc(C)cc1NC(=O)C(Sc1nnc2ccccn12)c1ccccc1 (stereo unspecified),cell number change,,17.8%
same,AC50,[2],"4.61 µM [rising, partial curve]"
O=C1CC(c2ccccc2Br)c2cc3c(cc2N1)CCC3 (stereo unspecified),cell number change,,22.5%
same,AC50,[2],"5.8 µM [rising, single point]"
c1ccc(COc2ccc(CNCc3cccs3)cc2)cc1,AC50,[2],"2.06 µM [falling, partial curve]"
Cc1ccc(C(=O)OCC(=O)Nc2ccc(N(C)C)cc2)cc1NC(=O)c1ccco1,AC50,[1],"0.82 µM [rising, full curve, poor fit]"

# Pulled one by one from the list above, 2 records:
smiles,measurement,setting,value
Cc1cc(NC(=O)CSc2nnc3c(C)cc4ccccc4n23)no1,AC50,[2],"29.1 µM [rising, single point]"
CC(/C=C1\SC(=S)N(CCC(=O)Nc2cccc(C(=O)O)c2)C1=O)=C\c1ccccc1,cell number change,,-17.9%

# As a short view, part of the list above.
smiles,measurement,setting,value
O=C1CC(c2ccccc2Br)c2cc3c(cc2N1)CCC3 (stereo unspecified),cell number change,,22.5%
same,AC50,[2],"5.8 µM [rising, single point]"
